Measured data: PubChem BioAssay AID1259254 (NCATS, 2017)
The whole screen tested about 59,000 reagents; below is a part drawn at random. In the full data, about 1,550 (2.6%) were called active. 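G2 share is only a proxy for re-replication; each gene was hit by three separate siRNAs, and active genes were retested.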 The numbers tell different reagents against one gene apart. Not all columns of the deposit are shown. The record does not give: the amount of reagent.

- Purpose: 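Finding genes that stop cells copying their DNA twice in one cycle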 (primary screen)
- Cells: human HCT116 colorectal cancer cells
- Knock-down reagent: single siRNA against human genes
- Duration: 3 days
- Measured: 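Nuclei stained with Hoechst and imaged; cell-cycle phase assigned by DNA content; G2 share scaled per plate, non-targeting siRNA 0%, GMNN siRNA 100%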
- Direction: G2 robust z-score and G2 cells, % of GMNN control: higher = more G2 cells, more excess DNA replication
- Active means: 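An siRNA counts as active if its G2 robust z-score lies at least 5 MADs above the screen median; here such calls match roughly 38% of GMNN control or more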

| target | reagent no. | G2 robust z-score | G2 cells, % of GMNN control | outcome |
| --- | --- | --- | --- | --- |
| PRRT4 (proline rich transmembrane protein 4) | 1 | 0.652 | 7.55 | inactive |
| PRRT4 (proline rich transmembrane protein 4) | 2 | -0.215 | 1.45 | inactive |
| PRRT4 (proline rich transmembrane protein 4) | 3 | -0.656 | -1.65 | inactive |
| C4A (complement C4A (Chido/Rodgers blood group)) | 1 | 0.00841 | 3.03 | inactive |
| C4A (complement C4A (Chido/Rodgers blood group)) | 2 | 0.849 | 8.94 | inactive |
| C4A (complement C4A (Chido/Rodgers blood group)) | 3 | -0.703 | -1.98 | inactive |
| XPR1 (xenotropic and polytropic retrovirus receptor 1) | 1 | 2.92 | 23.5 | inactive |
| XPR1 (xenotropic and polytropic retrovirus receptor 1) | 2 | 0.52 | 6.63 | inactive |
| XPR1 (xenotropic and polytropic retrovirus receptor 1) | 3 | 0.207 | 4.42 | inactive |
| EI24 (EI24 autophagy associated transmembrane protein) | 1 | -0.63 | -1.47 | inactive |
| EI24 (EI24 autophagy associated transmembrane protein) | 2 | -0.381 | 0.283 | inactive |
| EI24 (EI24 autophagy associated transmembrane protein) | 3 | -0.533 | -0.781 | inactive |
| LATS1 (large tumor suppressor kinase 1) | 1 | -1.79 | -9.63 | inactive |
| LATS1 (large tumor suppressor kinase 1) | 2 | -0.529 | -0.754 | inactive |
| LATS1 (large tumor suppressor kinase 1) | 3 | -0.392 | 0.209 | inactive |
| DIP2B (DIP2 acetate--CoA ligase B (putative)) | 1 | -1.43 | -7.07 | inactive |
| DIP2B (DIP2 acetate--CoA ligase B (putative)) | 2 | -1 | -4.09 | inactive |
| DIP2B (DIP2 acetate--CoA ligase B (putative)) | 3 | -1.19 | -5.44 | inactive |
| TPM3 (tropomyosin 3) | 1 | 2.44 | 20.2 | inactive |
| TPM3 (tropomyosin 3) | 2 | 0.313 | 5.17 | inactive |
| TPM3 (tropomyosin 3) | 3 | 1.07 | 10.5 | inactive |
| GPX2 (glutathione peroxidase 2) | 1 | -0.241 | 1.27 | inactive |
| GPX2 (glutathione peroxidase 2) | 2 | 1.4 | 12.8 | inactive |
| GPX2 (glutathione peroxidase 2) | 3 | -1.18 | -5.35 | inactive |
| PPP1R26 (protein phosphatase 1 regulatory subunit 26) | 1 | -0.96 | -3.79 | inactive |
| PPP1R26 (protein phosphatase 1 regulatory subunit 26) | 2 | -0.166 | 1.8 | inactive |
| PPP1R26 (protein phosphatase 1 regulatory subunit 26) | 3 | 0.913 | 9.39 | inactive |
| MRPS2 (mitochondrial ribosomal protein S2) | 1 | -0.386 | 0.25 | inactive |
| MRPS2 (mitochondrial ribosomal protein S2) | 2 | 0.204 | 4.4 | inactive |
| MRPS2 (mitochondrial ribosomal protein S2) | 3 | 4.76 | 36.4 | inactive |

Records listed so far whose gene name begins with M or m (3):
| target | reagent no. | G2 robust z-score | G2 cells, % of GMNN control | outcome |
| --- | --- | --- | --- | --- |
| MRPS2 (mitochondrial ribosomal protein S2) | 1 | -0.386 | 0.25 | inactive |
| MRPS2 (mitochondrial ribosomal protein S2) | 2 | 0.204 | 4.4 | inactive |
| MRPS2 (mitochondrial ribosomal protein S2) | 3 | 4.76 | 36.4 | inactive |
